Assay results as given in paper PMC10767093.
These are yes or no findings as the source states them, for the method shown. Binding seen in cells or lysates may run through a third protein. Some entries that bind do so weakly or less than the wild type.

Chains of the proteins cited; added tags and fusions are not shown. Residues count along the entry.
UniProt O60260: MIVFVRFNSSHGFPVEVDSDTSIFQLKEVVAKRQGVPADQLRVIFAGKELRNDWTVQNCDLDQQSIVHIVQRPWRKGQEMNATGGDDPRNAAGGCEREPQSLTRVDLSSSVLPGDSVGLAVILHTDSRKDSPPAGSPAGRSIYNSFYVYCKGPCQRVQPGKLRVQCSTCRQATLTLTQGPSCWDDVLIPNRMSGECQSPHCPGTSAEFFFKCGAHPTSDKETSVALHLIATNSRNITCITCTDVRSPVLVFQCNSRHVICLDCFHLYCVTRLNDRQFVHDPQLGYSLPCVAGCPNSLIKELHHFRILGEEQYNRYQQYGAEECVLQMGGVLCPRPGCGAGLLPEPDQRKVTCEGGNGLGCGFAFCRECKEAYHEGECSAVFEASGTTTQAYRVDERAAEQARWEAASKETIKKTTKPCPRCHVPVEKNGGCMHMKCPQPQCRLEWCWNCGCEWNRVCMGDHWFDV
UniProt Q15843, residues 1-76: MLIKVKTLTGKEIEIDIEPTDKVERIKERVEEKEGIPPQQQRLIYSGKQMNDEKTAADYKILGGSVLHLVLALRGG
UniProt P29595, residues 1-76: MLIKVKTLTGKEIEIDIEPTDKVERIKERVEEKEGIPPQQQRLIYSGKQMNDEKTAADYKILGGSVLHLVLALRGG

Tests used:
[1] = molecular target: Parkin in 293 T cells (human (endogenous in 293 T)) (UniProt O60260); experiment: co-IP; NEDD8 and Parkin from 293 T cells and murine Tregs, either over-expressing NEDD8 (OE-NEDD8) or treated with MLN4924 (3 uM); western blot of whole-cell lysates and immunoprecipitates
[2] = molecular target: T1, Parkin in murine Tregs (mouse (endogenous in murine Tregs)) (UniProt Q9WVS6); experiment: as above
T1 sequence: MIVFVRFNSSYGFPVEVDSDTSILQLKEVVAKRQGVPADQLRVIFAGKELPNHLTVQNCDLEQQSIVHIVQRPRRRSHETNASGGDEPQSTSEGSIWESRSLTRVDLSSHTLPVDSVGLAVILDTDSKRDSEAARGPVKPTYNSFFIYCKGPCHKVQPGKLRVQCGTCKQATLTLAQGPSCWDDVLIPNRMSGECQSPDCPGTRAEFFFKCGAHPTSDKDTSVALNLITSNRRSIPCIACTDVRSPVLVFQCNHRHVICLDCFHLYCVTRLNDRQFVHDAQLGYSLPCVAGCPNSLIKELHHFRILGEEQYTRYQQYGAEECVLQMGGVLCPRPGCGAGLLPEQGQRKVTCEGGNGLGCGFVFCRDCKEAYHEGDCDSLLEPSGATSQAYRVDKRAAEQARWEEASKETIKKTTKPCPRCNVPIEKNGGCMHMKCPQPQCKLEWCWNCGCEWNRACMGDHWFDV

“NEDD8 in 293 T cells (from UniProt Q15843 1-76)” was tested, and the binding [1] was “binds”.
In the case of “NEDD8 in murine Tregs (from UniProt P29595 1-76)”, the binding [2] is reported as “binds”.
